From PubChem BioAssay AID504467 (National Center for Advancing Translational Sciences (NCATS), 2011)
In all, about 330,000 compounds went through this assay and about 7,700 (2.3%) were called active. Inconclusive results, whose numbers are uncertain, are shown with a selection of clear calls. The call rests on the fitted dose curve; in most records, active means well fitted inhibition curve with a large enough effect; inconclusive means small, poorly fitted or top-dose-only effect, or effect the other way; inactive means flat fitted curve, though single readings scatter. Potencies beside an inconclusive call are fits to weak or partial responses and may not hold up.

Assay: qHTS screen for small molecules that inhibit ELG1-dependent DNA repair in human embryonic kidney (HEK293T) cells expressing luciferase-tagged ELG1; further: nearly all actives have a fitted effect of over 55% in size
Details: HEK293T ELG1-luciferase reporter, luminescence, 16 h, DNA damage induced by 5-fluorouridine; activity change, negative = inhibition: at 46.1 µM (top of the series)
Procedure, shortened: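 Luminescence from the luciferase reporter, measured 30 min after ONE-Glo reagent at room temperature, was the read-out. Beforehand, 2,000 cells per well were exposed for 16 hr at 37 °C to 5-fluorouridine together with compound or vehicle.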
On the % scale 0 is the no-effect control and ±100 the full control effect; potency means the concentration at half of the fitted maximal effect.

| Structure (SMILES) | Potency | activity change, negative = inhibition |
| --- | --- | --- |
| COC(=O)Cn1c(-c2ccc(OC)cc2)c(-c2ccc(OC)cc2)nnc1=O | inconclusive: 35.5 µM [activator, single point] | – |
| Cc1ccc2nc3n(c(=O)c2c1)CCCCC3 | inconclusive: 23.1 µM [activator, partial curve] | – |
| CCC(C)N1CCC2(CC1)N=c1c(c3c4c5c(C)c(O)c3c(O)c1=NC(=O)C(C)=CC=C[C@H](C)[C@H](O)[C@@H](C)[C@@H](O)[C@@H](C)[C@H](OC(C)=O)[C@H](C)[C@@H](OC)C=CO[C@@](C)(O5)C4=O)N2 (stereo not given in full) | – | inactive: 2.27% |
| CC1=C(C(=O)OCc2ccccc2)C(c2ccc([N+](=O)[O-])cc2)NC(=O)N1C (stereo not given) | – | inactive: 5.26% |
| CCc1noc(C)c1C(=O)Nc1nc2c(C)cccc2s1 | – | inactive: 15.2% |
| Cn1c2ccccc2c2c(C(=O)NCC3CCCO3)cn(C3CCCC3)c(=O)c21 (stereo not given) | inconclusive: 20.6 µM [inhibitor, partial curve, poor fit] | – |
| CN(c1ccccc1)S(=O)(=O)c1cccc(NC(=O)COc2ccccc2)c1 | inconclusive: 18.3 µM [inhibitor, single point] | – |
| CCOC(=O)C1=C(N)n2c(s/c(=C\c3ccco3)c2=O)=C(C(=O)OCC)C1c1ccco1 (stereo not given) | – | inactive: -18.9% |
| Nc1ccnn1Cc1ccncc1 | – | inactive: 6.1% |
| CCn1cc(Cl)c(C(=O)N2N=C3/C(=C/c4cccs4)CCCC3C2c2cccs2)n1 (stereo not given) | inconclusive: 25.9 µM [inhibitor, single point] | – |
| CCn1c(CSc2nc3ccccc3s2)nnc1SCC(=O)c1ccc(O)c(O)c1 | inconclusive: 20.6 µM [inhibitor, partial curve] | – |
| COC(=O)c1oc2ccc(Br)cc2c1NC(=O)CCCN1C(=O)c2ccccc2C1=O | inconclusive: 18.4 µM [inhibitor, single point] | – |
| COc1ccc(/C=C2\N=C3CCCCCN3C2=O)cc1OC | inconclusive: 10.3 µM [activator, single point] | – |
| Cc1ccc(CNC(=O)C(=O)NCC2OCCN2S(=O)(=O)c2ccc(Br)cc2)cc1 (stereo not given) | inconclusive: 29.1 µM [inhibitor, single point] | – |
| CCN(CC)CCn1c2c(c(SCC(=O)Nc3ccc(C(C)C)cc3)nc1=O)CCC2 | inconclusive: 8.2 µM [activator, single point] | – |
| COc1ccc(C(=O)OCC(=O)c2ccc(Br)s2)c(OC)c1 | inconclusive: 25.9 µM [activator, single point] | – |
| N#C/C(=C\c1ccccc1Cl)C(=O)NC(=O)Oc1ccccc1 | inconclusive: 16.4 µM [activator, partial curve, poor fit] | – |
| CCCn1cc(S(=O)(=O)c2ccccc2)c(=O)c2cc(OC)c(OC)cc21 | – | inactive: 6.97% |
| Cc1ccc(-c2cc(C(=O)Nc3c(C)n(C)n(-c4ccccc4)c3=O)c3ccccc3n2)cc1 | active: 13 µM | – |
| CCOC(=O)C1(C)C=C(Nc2ccc(O)cc2)C(=O)N1c1ccc(O)cc1 (stereo not given) | inconclusive: 11.6 µM [inhibitor, partial curve, poor fit] | – |
| CC(=O)c1cc2c(cc1NC(=O)CSc1nc3ccccc3o1)OCO2 | inconclusive: 16.4 µM [activator, partial curve, poor fit] | – |
| COc1ccc(NC(=S)Nc2cccc(Cl)c2)cc1OC | – | inactive: -8.35% |
| CC(=O)c1cccc(OCc2cc(C(=O)NC3CCN(Cc4ccccc4)CC3)no2)c1 | inconclusive: 6.51 µM [inhibitor, partial curve, poor fit] | – |
| COc1cc(/C=N/Nc2ncc(C(F)(F)F)cc2Cl)cc(OC)c1OC | inconclusive: 29.1 µM [inhibitor, single point] | – |

| Structure (SMILES) | Potency | activity change, negative = inhibition |
| --- | --- | --- |
| N/C(=N\OC(=O)c1ccc(Br)cc1)c1cccc([N+](=O)[O-])c1 | inconclusive: 9.2 µM [activator, partial curve] | – |
| CC(=O)NC(CC(=O)N(Cc1ccccc1)c1cccc(C)c1)c1ccccc1 (stereo not given) | – | inactive: -4.16% |
| Cc1ccc(NCc2n[nH]c(=S)n2-c2cccc(Cl)c2)cc1 | – | inactive: -8.01% |
| O=C(NCc1ccc(/C=N\NC(=O)C(=O)Nc2ccccc2Br)o1)C(=O)Nc1ccccc1 | – | inactive: 13.6% |
| O=C1CN(C(=O)c2cccc(F)c2)C(c2ccc(F)cc2)c2cc(F)ccc2N1 (stereo not given) | inconclusive: 0.651 µM [inhibitor, full curve] | – |
| COc1ccc(CCNC(=O)CS(=O)(=O)Cc2nc(-c3ccccc3Cl)oc2C)cc1OC | inconclusive: 16.4 µM [inhibitor, partial curve] | – |
| Cc1ccc(NC(=O)C/C(N)=N/O)cc1C | inconclusive: 3.66 µM [activator, single point] | – |
| Cc1cc2oc(C(=O)N(Cc3ccc(N(C)C)cc3)CC3CCCO3)c(C)c2cc1C (stereo not given) | – | inactive: 5.63% |
| Cc1ccc(C(=O)N/C(=C\c2ccccc2)C(=O)NCC2CCCO2)cc1 (stereo not given) | inconclusive: 29.1 µM [activator, partial curve, poor fit] | – |
| O=C1CC(C(=O)N2CCN(Cc3ccccc3)CC2)CN1Cc1ccccc1 (stereo not given) | – | inactive: 17.7% |
| Cc1noc(C)c1CSCC(=O)Nc1nc2ccccc2s1 | inconclusive: 29.1 µM [inhibitor, single point] | – |
| COc1ccc(-c2cnnn2-c2ccc(NC(=O)c3ccc(S(=O)(=O)N4CCCCC4)cc3)cc2)cc1OC | inconclusive: 2.91 µM [inhibitor, full curve] | – |
| O=c1cc[nH]c2cccc(Cc3ccccc3)c12 | – | inactive: -11.4% |
| Cc1cnc(NC(=O)Cc2ccccc2Cl)s1 | – | inactive: -5.68% |
| COc1cccc(C(=O)Nc2nnc(-c3ccccc3)s2)c1OC | inconclusive: 4.61 µM [activator, full curve] | – |
| CCOC(=O)C/C(C)=N/NC(=O)Nc1ccccc1 | – | inactive: 4.91% |
| COc1cc(C(=O)O)cc(NC(=O)c2cccs2)c1OC | inconclusive: 32.6 µM [activator, partial curve, poor fit] | – |
| CN1C2C=C(N(CCc3c[nH]c4ccccc34)C(=O)c3ccc(Cl)cc3)CC1CC2 (stereo not given) | – | inactive: -6.94% |
| CCN(CCCNC(=O)CCCN1C(=O)COc2ccc(C)cc21)c1cccc(C)c1 | inconclusive: 29.1 µM [inhibitor, single point] | – |
| N#Cc1ccc(N2CCc3ccccc3C2)c([N+](=O)[O-])c1 | – | inactive: -5.98% |
| Cc1sc(NC(=O)c2ccco2)c(CN2CCN(c3ccccn3)CC2)c1C | inconclusive: 20.6 µM [inhibitor, single point] | – |
| Cc1cccc(NCc2nc(-c3ccccc3)no2)c1 | inconclusive: 18.4 µM [activator, single point] | – |
| COc1ccc(C2N(Cc3ccccc3)CC(=O)N2/N=C(\C)c2ccccc2)cc1 (stereo not given) | inconclusive: 14.6 µM [activator, single point] | – |
| Cn1c(=O)cc(OCC(=O)N2CCN(c3ccccc3F)CC2)c2ccccc21 | inconclusive: 6.51 µM [activator, full curve, poor fit] | – |

19 consecutive records already listed, for reference:

| Structure (SMILES) | Potency | activity change, negative = inhibition |
| --- | --- | --- |
| N/C(=N\OC(=O)c1ccc(Br)cc1)c1cccc([N+](=O)[O-])c1 | inconclusive: 9.2 µM [activator, partial curve] | – |
| CC(=O)NC(CC(=O)N(Cc1ccccc1)c1cccc(C)c1)c1ccccc1 (stereo not given) | – | inactive: -4.16% |
| Cc1ccc(NCc2n[nH]c(=S)n2-c2cccc(Cl)c2)cc1 | – | inactive: -8.01% |
| O=C(NCc1ccc(/C=N\NC(=O)C(=O)Nc2ccccc2Br)o1)C(=O)Nc1ccccc1 | – | inactive: 13.6% |
| O=C1CN(C(=O)c2cccc(F)c2)C(c2ccc(F)cc2)c2cc(F)ccc2N1 (stereo not given) | inconclusive: 0.651 µM [inhibitor, full curve] | – |
| COc1ccc(CCNC(=O)CS(=O)(=O)Cc2nc(-c3ccccc3Cl)oc2C)cc1OC | inconclusive: 16.4 µM [inhibitor, partial curve] | – |
| Cc1ccc(NC(=O)C/C(N)=N/O)cc1C | inconclusive: 3.66 µM [activator, single point] | – |
| Cc1cc2oc(C(=O)N(Cc3ccc(N(C)C)cc3)CC3CCCO3)c(C)c2cc1C (stereo not given) | – | inactive: 5.63% |
| Cc1ccc(C(=O)N/C(=C\c2ccccc2)C(=O)NCC2CCCO2)cc1 (stereo not given) | inconclusive: 29.1 µM [activator, partial curve, poor fit] | – |
| O=C1CC(C(=O)N2CCN(Cc3ccccc3)CC2)CN1Cc1ccccc1 (stereo not given) | – | inactive: 17.7% |
| Cc1noc(C)c1CSCC(=O)Nc1nc2ccccc2s1 | inconclusive: 29.1 µM [inhibitor, single point] | – |
| COc1ccc(-c2cnnn2-c2ccc(NC(=O)c3ccc(S(=O)(=O)N4CCCCC4)cc3)cc2)cc1OC | inconclusive: 2.91 µM [inhibitor, full curve] | – |
| O=c1cc[nH]c2cccc(Cc3ccccc3)c12 | – | inactive: -11.4% |
| Cc1cnc(NC(=O)Cc2ccccc2Cl)s1 | – | inactive: -5.68% |
| COc1cccc(C(=O)Nc2nnc(-c3ccccc3)s2)c1OC | inconclusive: 4.61 µM [activator, full curve] | – |
| CCOC(=O)C/C(C)=N/NC(=O)Nc1ccccc1 | – | inactive: 4.91% |
| COc1cc(C(=O)O)cc(NC(=O)c2cccs2)c1OC | inconclusive: 32.6 µM [activator, partial curve, poor fit] | – |
| CN1C2C=C(N(CCc3c[nH]c4ccccc34)C(=O)c3ccc(Cl)cc3)CC1CC2 (stereo not given) | – | inactive: -6.94% |
| CCN(CCCNC(=O)CCCN1C(=O)COc2ccc(C)cc21)c1cccc(C)c1 | inconclusive: 29.1 µM [inhibitor, single point] | – |

Further results follow:

| Structure (SMILES) | Potency | activity change, negative = inhibition |
| --- | --- | --- |
| O=C(CCc1ccccc1)NCC1(c2ccccc2)CCCC1 | inconclusive: 29.1 µM [inhibitor, partial curve, poor fit] | – |
| Nc1nonc1-n1nnc(C(=O)N/N=C\c2ccncc2)c1CN1CCCCC1 | inconclusive: 9.2 µM [inhibitor, partial curve] | – |
| COc1cc2cnc(-c3ccccc3)c(-c3ccc(C(F)(F)F)cc3)c2cc1OC | inconclusive: 29.1 µM [inhibitor, single point] | – |
| O=C(NCCCN1CCCC1=O)c1ccc2c(c1)OCO2 | inconclusive: 25.9 µM [activator, single point] | – |
| COc1cccc(N2CC(C(=O)Nc3nnc(SCC(=O)Nc4ccc(NC(C)=O)cc4)s3)CC2=O)c1 (stereo not given) | – | inactive: 1.12% |
| C#Cc1ccc([C@H]2C=C(C(=O)N3CCN(Cc4ccc5c(c4)OCO5)CC3)O[C@@H](OCC)[C@@H]2CCCO)cc1 | active: 18.3 µM | – |
| O=C(Nc1nc(-c2ccccn2)cs1)c1ccc(F)c(S(=O)(=O)N2CCOCC2)c1 | – | inactive: 7.79% |
| CCn1c(=O)cc(OCC(=O)Nc2ccc3c(c2)OCCO3)c2ccccc21 | inconclusive: 29.1 µM [inhibitor, single point] | – |
| COc1ccc(C)cc1NC(=O)C1CCN(S(=O)(=O)c2cccc3cccnc23)CC1 | active: 23.1 µM | – |
| CCN1c2ccccc2S(=O)(=O)c2ccccc21 | – | inactive: 0.416% |
| CCOC(=O)C1CC(c2ccccc2)=NNC1=O (stereo not given) | – | inactive: 11.4% |
| CCCCn1c(=N)n(CC(=O)C(C)(C)C)c2ccccc21 | – | inactive: 0.0995% |
| O=c1c(O)c(-c2ccc3c(c2)OCO3)oc2ccccc12 | inconclusive: 13 µM [activator, partial curve] | – |
| CS(=O)(=O)N1N=C(c2ccco2)CC1c1ccc(Cl)cc1 (stereo not given) | inconclusive: 1.84 µM [activator, partial curve, poor fit] | – |
| CCN(CC)CCNc1nc(-n2nc(C)cc2C)nc2sc3c(c12)CC(C)(C)OC3 | – | inactive: 0% |
| Cc1cc(=O)oc(C)c1C(=O)O | – | inactive: -14.3% |
| Cc1ccc(NC(=O)Cc2nc(CSc3nnc(-c4ccc5c(c4)OCO5)o3)cs2)cc1 | inconclusive: 35.5 µM [inhibitor, single point] | – |
| Cc1nc2cc(NC(=O)c3ccc(Cl)cc3)ccc2n1C | inconclusive: 1.46 µM [activator, partial curve] | – |
| c1ccc(-c2noc(-c3ccncc3)n2)nc1 | – | inactive: 0% |
| COc1ccc(CCNC(=O)Cn2c(=O)n(-c3ccc(C)c(F)c3)c(=O)c3sccc32)cc1OC | inconclusive: 20.6 µM [inhibitor, partial curve, poor fit] | – |
| CCC(C)c1ccc(NC(=O)CSc2nncn2N)cc1 (stereo not given) | inconclusive: 23.1 µM [activator, single point] | – |
| COc1cccc(C(=O)NCCS(=O)(=O)NCCc2ccccc2)c1 | inconclusive: 2.59 µM [activator, single point] | – |
